# PubChem BioAssay AID2685 (National Center for Advancing Translational Sciences (NCATS), 2010)
# This is one part of the list. These are further read-outs of the screen, such as a control signal, another cell line or another target. No call is given for them. The list favours compounds with an active or inconclusive main result. Potencies come from curve fits of mixed quality, noted in brackets.
# Assay: qHTS Assay for Lipid Storage Modulators in Drosophila S3 Cells;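 as to cell number change: cells counted by Cell Tracker Red CMTPX staining in the red channel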
# Conditions: BODIPY lipid droplet fluorescence, 18-24 h; for cell number change: measured here: cell count max response, cells fed with added oleic acid
# Outline: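 Drosophila S3 cells loaded with oleic acid (400 uM, as added) and compounds at several concentrations; lipid droplets imaged by 488-nm laser-scanning cytometry, 500–530 nm intensity and object ratio to cell channel. Percent activity normalized to 20 uM Triacsin C.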
# [1] = measured here: lipid fluorescence (Fed channel) AC50, cells fed with added oleic acid
# [2] = measured here: cell number channel AC50, cells fed with added oleic acid
Compound,cell number change,AC50 [1],AC50 [2]
Cc1ccc(C)c(S(=O)(=O)NCC(=O)N2CCCC2)c1,-3.17%,"29.1 µM [rising, single point]",–
COc1cccc(CNC(=O)CN2C(=O)CC(c3ccccc3)=Nc3ccccc32)c1,-69.3%,"0.92 µM [falling, partial curve]","1.3 µM [falling, partial curve]"
NS(=O)(=O)c1cccc(NC(=O)CCCC2CCCCC2)c1,10.1%,–,–
Cc1ccc(N(CC(=O)N2CCCCC2)S(=O)(=O)c2ccc(C)cc2)cc1,-11.7%,"0.00461 µM [falling, full curve, poor fit]",–
Cc1ccc(NC(=O)CSc2nn(-c3ccc(Cl)cc3)c(=S)s2)cc1S(=O)(=O)N(C)C,5.45%,–,–
CC1(C)OCC(C2CC(c3ccccc3)NS(=O)(=O)O2)O1 (stereo not given),7.77%,–,–
COc1ccc(OC)c(S(=O)(=O)NCc2cccnc2)c1,31.5%,–,–
CC(=O)Nc1ccc(OCC(O)Cn2nc(C)c(C(C)=O)c2C)cc1 (stereo not given),–,"0.13 µM [falling, partial curve, poor fit]",–
Cc1ccc(-c2nc(NC(=O)c3nn(C)cc3[N+](=O)[O-])sc2C)cc1C,36.7%,"29.1 µM [rising, single point]","29.1 µM [rising, single point]"
O=C(CC(CC(=O)c1ccccc1)c1ccccc1)c1ccccc1,13.5%,"16.4 µM [rising, single point]","0.231 µM [rising, full curve, poor fit]"
C=CCn1c(SCc2nc3ccccc3[nH]2)nnc1-c1ccc(OC)cc1,-16.2%,"23.1 µM [falling, single point]",–
Cc1ccc(S(=O)(=O)Nc2ccccc2F)cc1C(=O)NNC(=O)c1csc(N2CCOCC2)n1,125%,"3.66 µM [rising, single point]","6.51 µM [rising, full curve]"
Cc1nnc(NC(=O)C23CC4CC(CC(C4)C2)C3)s1,6.3%,"6.51 µM [rising, single point]",–
CCOC(=O)c1ccc(NC(=O)C(C)NS(=O)(=O)c2ccc(OC)cc2)cc1 (stereo not given),-2.5%,"29.1 µM [rising, single point]",–
O=C(CN1CCOCC1)Nc1nc2cc([N+](=O)[O-])ccc2s1,-20.8%,"13 µM [rising, single point]",–
COc1ccc(NC(=S)N2CCN(c3ncccn3)CC2)c(OC)c1,7.19%,–,–
Cc1nnc(SCc2ccc(F)cc2)n1NC/C=C/c1ccccc1,-27.2%,"32.6 µM [falling, single point]",–
O=C(CN1C(=O)CSC1=O)c1ccccc1,8.08%,–,–
CCn1c(-c2csc(-c3ccc(Cl)cc3)n2)n[nH]c1=S,-2.81%,"0.517 µM [rising, full curve]","0.82 µM [rising, partial curve]"

# 3 entries out of the list, ordered by molecular weight, falling:
Compound,cell number change,AC50 [1],AC50 [2]
Cc1ccc(N(CC(=O)N2CCCCC2)S(=O)(=O)c2ccc(C)cc2)cc1,-11.7%,"0.00461 µM [falling, full curve, poor fit]",–
Cc1nnc(SCc2ccc(F)cc2)n1NC/C=C/c1ccccc1,-27.2%,"32.6 µM [falling, single point]",–
NS(=O)(=O)c1cccc(NC(=O)CCCC2CCCCC2)c1,10.1%,–,–

# The list goes on:

Compound,cell number change,AC50 [1],AC50 [2]
COc1ccc(CCn2c(N3CCN(Cc4ccccc4)CC3)nc3c2c(=O)[nH]c(=O)n3C)cc1,-22%,"0.58 µM [rising, partial curve, poor fit]",–
C/C(=N\NC(=O)c1ccn(C)n1)c1cccc(NC(=O)c2ccncc2)c1,11.4%,"8.2 µM [rising, partial curve, poor fit]",–
O=C(CNC(=O)c1ccc(Br)o1)NCc1ccc(F)cc1,4.99%,"0.731 µM [falling, single point]",–
O=C(NCC1CCCN1S(=O)(=O)c1cccs1)c1ccc(F)c(F)c1 (stereo not given),33.7%,–,"16.4 µM [rising, single point]"
CCSc1nc(=O)n(-c2ccccc2)c(C)c1C(C)=O,-23.3%,"0.82 µM [falling, full curve, poor fit]","0.206 µM [falling, full curve, poor fit]"
O=C(NC(=S)Nc1ccc(S(=O)(=O)Nc2nccs2)cc1)c1cccc(F)c1,2.25%,"29.1 µM [rising, single point]",–
CCOCCCNc1nc2ccccc2[nH]1,-13.1%,"1.16 µM [falling, full curve]","0.146 µM [falling, full curve, poor fit]"
Cc1cc2cc3c(cc2nc1SCC(=O)Nc1nc(C)c(C)s1)OCO3,–,"0.13 µM [rising, full curve, poor fit]",–
COc1ccc(S(=O)(=O)N2CCCCC2)cc1NC(=O)Cc1ccsc1,-7.23%,–,–
COc1ccc(S(=O)(=O)N2CCOC2CNC(=O)C(=O)NCCc2ccccc2OC)cc1C (stereo not given),11.2%,"0.58 µM [rising, single point]",–
COCc1cc(N2CCCC2)nc(-c2ccccc2)n1,–,"0.517 µM [rising, single point]",–
CCN(Cc1nc2ccccc2c(=O)[nH]1)C(=O)c1cccc(S(=O)(=O)N2CCc3ccccc32)c1,44.4%,–,"10.3 µM [rising, partial curve, poor fit]"
COc1ccc(CNS(=O)(=O)c2cc(-c3cc(C)no3)ccc2OC)cc1OC,-11.2%,"4.11 µM [falling, single point]",–
C/C(Cc1ccccc1)=N\NC(=O)c1ccccn1,20%,–,–
CCOC(=O)c1nn(-c2ccc(F)cc2)c(=O)cc1OCC(=O)Nc1ccc(OCC)cc1,-99.7%,"16.4 µM [rising, partial curve]","32.6 µM [falling, partial curve]"
C=CCc1cccc2cc(C(=O)NCc3cccnc3)c(=O)oc12,263%,"18.4 µM [rising, partial curve]","16.4 µM [rising, partial curve]"
CCC(C)c1ccccc1NC(=O)COC(=O)C1=COCCO1 (stereo not given),-63%,"0.517 µM [rising, partial curve]","29.1 µM [falling, single point]"
CCOC(=O)CNC(=O)/C=C/c1c(Cl)cccc1Cl,-13%,"9.2 µM [rising, single point]",–
O=C(NCCN1CCCCC1)Nc1ccccc1,-25.7%,–,"4.11 µM [falling, full curve, poor fit]"
